Measurements taken from article PMC10726440, “N-Biphenyl Pyrrolinones and Dibenzofurans as RNA-Binding Protein LIN28 Inhibitors Disrupting the LIN28–Let-7 Interaction” (ACS Medicinal Chemistry Letters, 2023).
For at least one entry, the source does not settle the construct or the ends of the probe. At least one verdict was read from the data and is not stated in words by the source. Tags and fusion partners may be left off the protein sequences shown.

What was measured:
LIN28A(16-187) = target: T1, LIN28A(16-187) (UniProt Q9H9Z2); assay: EMSA; conditions: 10 nM protein, 5 nM RNA, 50 uM ZnCl2, complex control of inhibitor assay; 50 mM Tris pH 7.5, 100 mM NaCl, 10 mM beta-mercaptoethanol, 50 uM ZnCl2, 2% DMSO, 0.01% Tween-20, 12% glycerol, room temperature; native PAGE 0.25x TAE at 4 C; recombinant protein; residues 16-187; label: 3'-Cy3
T1 sequence (looked up): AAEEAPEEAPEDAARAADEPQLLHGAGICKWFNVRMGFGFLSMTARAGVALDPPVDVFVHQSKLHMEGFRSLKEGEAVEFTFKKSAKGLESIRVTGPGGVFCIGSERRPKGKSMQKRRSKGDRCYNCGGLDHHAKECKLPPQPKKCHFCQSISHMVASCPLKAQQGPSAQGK

LIN28B CSD (24-111) = target: T2, LIN28B CSD (24-111) (UniProt Q6ZN17); assay: EMSA; conditions: 200 nM protein, 5 nM RNA, 50 uM ZnCl2, complex control of inhibitor assay; 50 mM Tris pH 7.5, 100 mM NaCl, 10 mM beta-mercaptoethanol, 50 uM ZnCl2, 2% DMSO, 0.01% Tween-20, 12% glycerol, room temperature; native PAGE 0.25x TAE at 4 C; recombinant protein; residues 24-111; label: 3'-Cy3
T2 sequence (looked up): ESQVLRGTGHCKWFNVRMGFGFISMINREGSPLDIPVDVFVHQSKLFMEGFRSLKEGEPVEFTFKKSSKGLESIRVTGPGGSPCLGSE

GGGGUAGUGAUUUUACCCUGUUUAGGAGAU [pre-E let-7f-1-Cy3]
binding result (LIN28A(16-187)): binds | binding result (LIN28B CSD (24-111)): binds
